# PubChem BioAssay AID743454 – Peter MacCallum Cancer Centre – 2014
# Assay: 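Genes whose loss kills vorinostat-resistant colon cancer cells under vorinostat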 (primary screen)
# Cell system: human HCT116-VR colon cancer cells, selected for vorinostat resistance
# Knock-down reagent: siRNA pool against human genes, 40 nM siRNA pool
# Duration: vorinostat for 24 h, read-out about 72 h after transfection
# Treatment: vorinostat at 2.5 µM final
# Measurement: 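Cell viability by CellTiter-Fluor and caspase 3/7 activity by luminescence, each scaled to mock wells per plate, duplicates averaged, then robust z-scored over all plates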
# Reading the numbers: viability robust z-score: higher = more viable cells than screen typical; caspase robust z-score: higher = more caspase 3/7 activity than screen typical
# Active means: 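a knock-down is a hit when classed RV1 or RV2 for lowered viability, or CA1 or CA2 for caspase activation; those lethal without drug were dropped; hits were retested singly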
# This is one part, drawn at random, of about 18,000 deposited reagents. Of all reagents, 450 (2.5%) got an active call. 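Single biological run; no consistent viability z cut-off exists, so the class columns, not z-scores, define the calls.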 The numbers tell different reagents against one gene apart. No sequences are given here.
The first 7 records, ahead of the listing:
Target gene,reagent,viability hit class,caspase hit class,viability robust z-score,caspase robust z-score,outcome
MTMR7,1,no change,no change,0.73,1.6,inactive
ARMCX6,1,no change,no change,0.63,0.01,inactive
ADNP,1,no change,no change,0.83,-0.36,inactive
TMEM119,1,no change,no change,2.05,-0.2,inactive
ADAMTS17,1,no change,no change,-1.25,0.12,inactive
HOOK3,1,no change,no change,1.06,0.35,inactive
AMOT,1,no change,no change,0.22,0.05,inactive

Results, from the start:
Target gene,reagent,viability hit class,caspase hit class,viability robust z-score,caspase robust z-score,outcome
MTMR7,1,no change,no change,0.73,1.6,inactive
ARMCX6,1,no change,no change,0.63,0.01,inactive
ADNP,1,no change,no change,0.83,-0.36,inactive
TMEM119,1,no change,no change,2.05,-0.2,inactive
ADAMTS17,1,no change,no change,-1.25,0.12,inactive
HOOK3,1,no change,no change,1.06,0.35,inactive
AMOT,1,no change,no change,0.22,0.05,inactive
MTIF3,1,no change,no change,0.54,0.98,inactive
CCND1,1,no change,no change,0.38,-0.71,inactive
PPP4R4,1,RV2 (reduced viability),no change,-3.54,0.1,active
ERAL1,1,no change,no change,0.84,-0.75,inactive
YIPF7,1,no change,no change,-0.72,-0.76,inactive
NPAT,1,no change,no change,0.41,-0.29,inactive
AGAP7P,1,no change,no change,-0.09,-0.58,inactive
LY6G6D,1,no change,no change,-2.12,-0.85,inactive
AARD,1,no change,no change,0.52,-0.25,inactive
RPN2,1,no change,no change,0.55,2.24,inactive
CAD,1,no change,no change,0.39,-0.76,inactive
SLC38A7,1,no change,no change,0.48,0.65,inactive
SLC35F2,1,no change,no change,-0.02,1.52,inactive
TLR2,1,no change,no change,-0.6,-1.26,inactive
CLDN7,1,no change,no change,0.82,2.26,inactive
RAB6A,1,no change,no change,0.42,0.26,inactive
CALM3,1,no change,CA2 (caspase activation),-1.4,6.03,active
ATM,1,no change,no change,0.22,-0.41,inactive
DEPDC1B,1,no change,no change,0.28,-0.59,inactive
HACL1,1,no change,no change,-1.51,4.15,inactive
ZC3HC1,1,no change,no change,-0.31,-0.3,inactive
PDCD2,1,no change,no change,-0.4,-0.06,inactive
RBFOX3,1,no change,no change,0.6,0.6,inactive
RBFOX3,2,no change,no change,-0.06,-0.76,inactive
FAM186B,1,no change,no change,1.22,1.06,inactive
SLC43A1,1,no change,no change,1.61,3.52,inactive
EIF3F,1,no change,no change,-2.39,0.64,inactive
GDF6,1,no change,no change,-0.27,-0.38,inactive
ARHGAP32,1,no change,no change,-1.25,-0.52,inactive
MATR3,1,no change,no change,0.1,-0.44,inactive
LENEP,1,no change,no change,-0.68,1.46,inactive
CELA1,1,no change,no change,-0.43,-0.12,inactive
CLEC3A,1,no change,no change,-0.5,-0.83,inactive
PRKD2,1,no change,no change,0.22,0.6,inactive
PFDN5,1,no change,no change,0.48,0.24,inactive
FGG,1,no change,no change,-0.58,-1.44,inactive
NOD2,1,no change,no change,0.46,0.26,inactive
SDHC,1,no change,no change,-0.15,0.76,inactive
TMED2,1,no change,no change,0.19,-0.26,inactive
ADSL,1,no change,no change,1.53,-0.02,inactive
PHRF1,1,no change,no change,-0.91,0.62,inactive
RBSN,1,no change,no change,-0.98,0.48,inactive
DENR,1,no change,no change,-0.08,-0.16,inactive
RRAD,1,no change,no change,-1.79,1.02,inactive
LRRC4,1,no change,no change,-1.48,0.82,inactive
SP8,1,no change,no change,1.48,2.31,inactive
NEURL2,1,no change,no change,0.5,-0.3,inactive
KIF16B,1,no change,no change,-0.36,-0.34,inactive
P2RY10,1,no change,no change,-0.24,-0.3,inactive
LACC1,1,no change,no change,-0.12,-0.79,inactive
